Results taken from patent publication US20180111993A1.
Results are given in words; binding and its absence hold for the method and conditions named. Some binding calls cover weakened binding; strength is not graded here.

Assays:
[1] = molecular target: chimeric soluble CD33-Mouse Fc (mouse); assay: flow cytometry of transfected 293T cells stained with soluble CD33 fused with mouse Fc chain, then anti-mouse Fc-APC
[2] = molecular target: chimeric soluble CD33-Mouse Fc (mouse); assay: flow cytometry of transduced PBMCs stained with recombinant CD33-Fc
[3] = molecular target: chimeric soluble CD33-Mouse Fc (mouse); assay: flow cytometry of transfected 293T cells stained with soluble CD33-mouse Fc

binding [1]: binds
binding [2]: binds
binding [3]: binds
B1: anti-CD33 CAR of the CD19:CD33 CAR construct (flow cytometry staining experiments) (protein, not shown: large carriers)
chain: RCDIQMTQSPSSLSASVGDRVTITCRASEDIYFNLVWYQQKPGKAPKLLIYDTNRLADGVPSRFSGSGSGTQYTLTISSLQPEDFATYYCQHYKNYPLTFGQGTKLEIKRSGGGGSGGGGSGGGGSGGGGSRSEVQLVESGGGLVQPGGSLRLSCAASGFTLSNYGMHWIRQAPGKGLEWVSSISLNGGSTYYRDSVKGRFTISRDNAKSTLYLQMNSLRAEDTAVYYCAAQDAYTGGYFDYWGQGTLVTVSSM
